According to article PMC7556880:
These are yes or no findings as the source states them, for the method shown. In cells and extracts the contact can be indirect. Some binding calls cover weakened binding; strength is not graded here.

The chains behind the UniProt entries cited, without tags or fusion partners.
UniProt Q61039: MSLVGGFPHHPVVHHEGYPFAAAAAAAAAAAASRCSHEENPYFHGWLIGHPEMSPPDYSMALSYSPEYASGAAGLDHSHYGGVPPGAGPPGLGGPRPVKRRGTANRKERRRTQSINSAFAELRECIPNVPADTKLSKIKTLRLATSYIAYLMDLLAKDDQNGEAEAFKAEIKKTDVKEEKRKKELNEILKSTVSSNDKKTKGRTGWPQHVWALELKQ
UniProt Q0VGT2: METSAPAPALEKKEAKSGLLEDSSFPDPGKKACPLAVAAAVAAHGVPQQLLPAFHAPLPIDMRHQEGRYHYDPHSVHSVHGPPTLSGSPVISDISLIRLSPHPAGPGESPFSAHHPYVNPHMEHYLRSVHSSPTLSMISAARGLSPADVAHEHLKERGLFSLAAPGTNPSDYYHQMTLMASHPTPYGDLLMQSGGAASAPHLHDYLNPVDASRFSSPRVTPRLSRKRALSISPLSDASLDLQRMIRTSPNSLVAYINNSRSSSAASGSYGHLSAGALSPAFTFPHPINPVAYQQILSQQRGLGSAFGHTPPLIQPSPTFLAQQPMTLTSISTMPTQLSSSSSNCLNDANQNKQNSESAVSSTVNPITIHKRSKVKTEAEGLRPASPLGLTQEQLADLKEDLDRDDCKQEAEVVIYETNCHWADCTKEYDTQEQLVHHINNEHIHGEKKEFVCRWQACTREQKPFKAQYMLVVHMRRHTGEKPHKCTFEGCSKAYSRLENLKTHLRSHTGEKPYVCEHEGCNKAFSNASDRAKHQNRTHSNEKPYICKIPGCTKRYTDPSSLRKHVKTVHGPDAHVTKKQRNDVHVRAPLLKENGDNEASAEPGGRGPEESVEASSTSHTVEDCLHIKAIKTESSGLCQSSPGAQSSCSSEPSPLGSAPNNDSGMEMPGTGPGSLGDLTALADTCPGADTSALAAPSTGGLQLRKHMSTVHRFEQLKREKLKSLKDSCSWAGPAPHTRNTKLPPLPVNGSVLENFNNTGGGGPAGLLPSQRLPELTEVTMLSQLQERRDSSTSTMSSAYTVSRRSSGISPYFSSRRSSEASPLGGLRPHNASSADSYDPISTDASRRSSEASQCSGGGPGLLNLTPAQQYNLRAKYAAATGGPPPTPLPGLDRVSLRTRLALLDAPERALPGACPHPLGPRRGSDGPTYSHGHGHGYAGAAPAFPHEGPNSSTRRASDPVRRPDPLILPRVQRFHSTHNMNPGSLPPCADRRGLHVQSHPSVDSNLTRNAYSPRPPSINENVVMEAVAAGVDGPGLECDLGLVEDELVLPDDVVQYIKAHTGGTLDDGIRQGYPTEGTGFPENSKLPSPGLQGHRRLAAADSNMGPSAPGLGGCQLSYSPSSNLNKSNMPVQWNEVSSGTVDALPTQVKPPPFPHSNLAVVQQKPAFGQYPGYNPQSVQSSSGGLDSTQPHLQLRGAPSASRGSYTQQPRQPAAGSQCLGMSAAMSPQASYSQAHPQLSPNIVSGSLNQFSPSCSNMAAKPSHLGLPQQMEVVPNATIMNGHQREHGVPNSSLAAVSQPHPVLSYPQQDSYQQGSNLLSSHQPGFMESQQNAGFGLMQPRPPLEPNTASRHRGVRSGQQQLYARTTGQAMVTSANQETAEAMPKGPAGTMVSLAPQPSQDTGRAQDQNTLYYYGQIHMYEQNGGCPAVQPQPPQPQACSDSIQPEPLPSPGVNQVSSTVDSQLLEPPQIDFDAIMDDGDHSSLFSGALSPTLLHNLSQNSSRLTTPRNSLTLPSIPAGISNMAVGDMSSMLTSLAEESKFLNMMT
UniProt Q61602: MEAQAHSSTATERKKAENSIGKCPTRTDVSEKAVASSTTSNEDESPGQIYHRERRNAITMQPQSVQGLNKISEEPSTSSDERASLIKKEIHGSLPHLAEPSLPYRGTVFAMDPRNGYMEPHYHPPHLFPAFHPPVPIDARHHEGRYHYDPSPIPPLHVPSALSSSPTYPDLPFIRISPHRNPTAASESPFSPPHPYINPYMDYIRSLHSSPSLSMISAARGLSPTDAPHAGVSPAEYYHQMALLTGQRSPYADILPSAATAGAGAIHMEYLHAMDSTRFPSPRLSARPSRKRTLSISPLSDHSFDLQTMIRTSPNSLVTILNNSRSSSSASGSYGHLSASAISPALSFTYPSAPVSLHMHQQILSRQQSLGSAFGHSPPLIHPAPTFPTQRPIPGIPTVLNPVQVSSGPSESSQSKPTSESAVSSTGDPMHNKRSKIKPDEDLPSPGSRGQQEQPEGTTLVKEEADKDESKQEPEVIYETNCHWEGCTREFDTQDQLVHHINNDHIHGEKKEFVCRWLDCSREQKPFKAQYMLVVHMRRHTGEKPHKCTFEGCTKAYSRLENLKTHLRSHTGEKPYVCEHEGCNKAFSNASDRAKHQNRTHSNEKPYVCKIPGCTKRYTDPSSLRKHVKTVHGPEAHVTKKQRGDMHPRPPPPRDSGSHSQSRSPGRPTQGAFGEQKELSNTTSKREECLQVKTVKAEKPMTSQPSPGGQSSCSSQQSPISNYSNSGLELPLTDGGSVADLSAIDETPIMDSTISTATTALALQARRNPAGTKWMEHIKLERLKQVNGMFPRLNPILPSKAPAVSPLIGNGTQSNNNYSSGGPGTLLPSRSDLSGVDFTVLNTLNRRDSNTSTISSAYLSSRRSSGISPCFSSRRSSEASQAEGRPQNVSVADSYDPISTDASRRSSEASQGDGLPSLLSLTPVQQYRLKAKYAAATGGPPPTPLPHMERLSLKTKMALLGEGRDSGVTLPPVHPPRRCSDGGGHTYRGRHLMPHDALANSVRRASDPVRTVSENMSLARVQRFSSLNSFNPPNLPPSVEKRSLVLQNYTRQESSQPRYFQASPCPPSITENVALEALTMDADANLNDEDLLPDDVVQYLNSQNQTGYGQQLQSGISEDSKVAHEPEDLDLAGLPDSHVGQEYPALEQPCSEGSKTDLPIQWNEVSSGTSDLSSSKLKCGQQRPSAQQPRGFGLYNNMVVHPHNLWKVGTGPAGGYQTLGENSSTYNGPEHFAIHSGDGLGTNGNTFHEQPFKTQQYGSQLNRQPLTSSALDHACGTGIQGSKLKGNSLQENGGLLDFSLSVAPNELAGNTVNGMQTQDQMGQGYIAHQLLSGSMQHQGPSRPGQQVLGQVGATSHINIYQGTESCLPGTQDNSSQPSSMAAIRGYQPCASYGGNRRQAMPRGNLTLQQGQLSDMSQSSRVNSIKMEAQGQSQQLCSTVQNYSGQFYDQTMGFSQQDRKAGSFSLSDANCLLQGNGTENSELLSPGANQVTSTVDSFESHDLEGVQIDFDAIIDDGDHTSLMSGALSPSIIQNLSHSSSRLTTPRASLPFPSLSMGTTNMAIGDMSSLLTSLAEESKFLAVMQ

Biological target: Hand2 (mouse (endogenous in E10.5 MNPs)) (UniProt Q61039)
Test: co-IP; endogenous proteins; lysate of pooled E10.5 CD-1 mandibular prominences in RIPA buffer; precipitated with goat polyclonal anti-Hand2 or control goat IgG overnight at 4C, Dynabeads Protein G, three washes in RIPA; Western blot

binding	Substance
no binding	Gli2, full-length isoform (from UniProt Q0VGT2 1-1544)
binds	Gli3, full-length isoform (from UniProt Q61602 1-1583)
